Taken from: PubChem BioAssay AID1259254 (NCATS, 2017)

Screen: 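Gene knock-downs that lead to re-replication, shown by excess G2 DNA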 (primary screen)
Cell system: human HCT116 colorectal cancer cells
Knock-down reagent: single siRNA against human genes
Duration: 3 days
Measured: 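Nuclei stained with Hoechst and imaged; cell-cycle phase assigned by DNA content; G2 share scaled per plate, non-targeting siRNA 0%, GMNN siRNA 100%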
Direction: G2 robust z-score and G2 cells, % of GMNN control: higher = more G2 cells, more excess DNA replication
Rule for the call: 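Active siRNAs have a G2 robust z of 5 or more median absolute deviations over the median, which in these data means about 38% or higher of GMNN control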
Shown is an unselected part of about 59,000 deposited reagents. About 1,550 of them (2.6%) count as active. 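G2 share is only a proxy for re-replication; each gene was hit by three separate siRNAs, and active genes were retested.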 The numbers tell different reagents against one gene apart. Not all columns of the deposit are shown. Not stated in the record: the amount of reagent.

| gene | reagent | G2 robust z-score | G2 cells, % of GMNN control | activity call |
| --- | --- | --- | --- | --- |
| AURKC (aurora kinase C) | 1 | -0.666 | -1.72 | inactive |
| AURKC (aurora kinase C) | 2 | 0.147 | 4 | inactive |
| AURKC (aurora kinase C) | 3 | -0.679 | -1.81 | inactive |
| SLC5A6 | 1 | 3.59 | 28.3 | inactive |
| SLC5A6 | 2 | -0.427 | -0.0351 | inactive |
| SLC5A6 | 3 | -0.126 | 2.08 | inactive |
| ASH2L (ASH2 like, histone lysine methyltransferase complex subunit) | 1 | -0.631 | -1.47 | inactive |
| ASH2L (ASH2 like, histone lysine methyltransferase complex subunit) | 2 | -1.41 | -6.95 | inactive |
| ASH2L (ASH2 like, histone lysine methyltransferase complex subunit) | 3 | 0.149 | 4.02 | inactive |
| ANKRD6 (ankyrin repeat domain 6) | 1 | -0.517 | -0.67 | inactive |
| ANKRD6 (ankyrin repeat domain 6) | 2 | 1.85 | 16 | inactive |
| ANKRD6 (ankyrin repeat domain 6) | 3 | 2.84 | 23 | inactive |
| LAX1 (lymphocyte transmembrane adaptor 1) | 1 | 0.55 | 6.84 | inactive |
| LAX1 (lymphocyte transmembrane adaptor 1) | 2 | 2.17 | 18.2 | inactive |
| LAX1 (lymphocyte transmembrane adaptor 1) | 3 | 1.58 | 14.1 | inactive |
| EIF5B (eukaryotic translation initiation factor 5B) | 1 | 0.8 | 8.59 | inactive |
| EIF5B (eukaryotic translation initiation factor 5B) | 2 | 0.0282 | 3.17 | inactive |
| EIF5B (eukaryotic translation initiation factor 5B) | 3 | 7 | 52.2 | active |
| CDC14B (cell division cycle 14B) | 1 | 0.532 | 6.71 | inactive |
| CDC14B (cell division cycle 14B) | 2 | -0.402 | 0.137 | inactive |
| CDC14B (cell division cycle 14B) | 3 | -0.0856 | 2.37 | inactive |
| CDK11B (cyclin dependent kinase 11B) | 1 | 0.735 | 8.14 | inactive |
| CDK11B (cyclin dependent kinase 11B) | 2 | 0.142 | 3.97 | inactive |
| CDK11B (cyclin dependent kinase 11B) | 3 | -1.12 | -4.9 | inactive |
| ETHE1 (ETHE1 persulfide dioxygenase) | 1 | -0.362 | 0.424 | inactive |
| ETHE1 (ETHE1 persulfide dioxygenase) | 2 | -1 | -4.08 | inactive |
| ETHE1 (ETHE1 persulfide dioxygenase) | 3 | -0.477 | -0.388 | inactive |
| ISG20 (interferon stimulated exonuclease gene 20) | 1 | 0.156 | 4.07 | inactive |
| ISG20 (interferon stimulated exonuclease gene 20) | 2 | -0.927 | -3.56 | inactive |
| ISG20 (interferon stimulated exonuclease gene 20) | 3 | 4.06 | 31.5 | inactive |
| TPRN (taperin) | 1 | -0.353 | 0.481 | inactive |
| TPRN (taperin) | 2 | -0.153 | 1.89 | inactive |
| TPRN (taperin) | 3 | -0.949 | -3.71 | inactive |
| RAB3D (RAB3D, member RAS oncogene family) | 1 | -0.808 | -2.71 | inactive |
| RAB3D (RAB3D, member RAS oncogene family) | 2 | 1.2 | 11.4 | inactive |
| RAB3D (RAB3D, member RAS oncogene family) | 3 | -0.577 | -1.09 | inactive |
| AMELX (amelogenin X-linked) | 1 | 1.04 | 10.3 | inactive |
| AMELX (amelogenin X-linked) | 2 | -0.462 | -0.281 | inactive |
| AMELX (amelogenin X-linked) | 3 | 4.38 | 33.8 | inactive |
| RTL5 (retrotransposon Gag like 5) | 1 | -1.11 | -4.88 | inactive |
| RTL5 (retrotransposon Gag like 5) | 2 | -0.152 | 1.9 | inactive |
| RTL5 (retrotransposon Gag like 5) | 3 | -1.04 | -4.32 | inactive |
| LRRC36 (leucine rich repeat containing 36) | 1 | 0.017 | 3.09 | inactive |
| LRRC36 (leucine rich repeat containing 36) | 2 | -1.03 | -4.26 | inactive |
| LRRC36 (leucine rich repeat containing 36) | 3 | 0.13 | 3.88 | inactive |
| LUC7L2 (LUC7 like 2, pre-mRNA splicing factor) | 1 | -1.06 | -4.5 | inactive |
| LUC7L2 (LUC7 like 2, pre-mRNA splicing factor) | 2 | 0.502 | 6.5 | inactive |
| LUC7L2 (LUC7 like 2, pre-mRNA splicing factor) | 3 | -0.26 | 1.14 | inactive |
| SUB1 (SUB1 regulator of transcription) | 1 | -0.271 | 1.06 | inactive |
| SUB1 (SUB1 regulator of transcription) | 2 | -0.739 | -2.23 | inactive |
| SUB1 (SUB1 regulator of transcription) | 3 | -0.699 | -1.95 | inactive |
| EHD2 (EH domain containing 2) | 1 | 1.26 | 11.9 | inactive |
| EHD2 (EH domain containing 2) | 2 | -0.28 | 0.998 | inactive |
| EHD2 (EH domain containing 2) | 3 | -0.204 | 1.53 | inactive |
| KANSL2 (KAT8 regulatory NSL complex subunit 2) | 1 | 0.616 | 7.3 | inactive |
| KANSL2 (KAT8 regulatory NSL complex subunit 2) | 2 | 0.55 | 6.84 | inactive |
| KANSL2 (KAT8 regulatory NSL complex subunit 2) | 3 | -0.216 | 1.45 | inactive |
| MAGEF1 (MAGE family member F1) | 1 | 3.74 | 29.3 | inactive |
| MAGEF1 (MAGE family member F1) | 2 | 1.2 | 11.4 | inactive |
| MAGEF1 (MAGE family member F1) | 3 | -1.07 | -4.54 | inactive |
| SNORC | 1 | 0.0784 | 3.52 | inactive |
| SNORC | 2 | -0.465 | -0.302 | inactive |
| SNORC | 3 | 1.31 | 12.2 | inactive |
| RPL10AP3 (ribosomal protein L10a pseudogene 3) | 1 | 1.48 | 13.4 | inactive |
| RPL10AP3 (ribosomal protein L10a pseudogene 3) | 2 | -0.164 | 1.82 | inactive |
| RPL10AP3 (ribosomal protein L10a pseudogene 3) | 3 | -0.784 | -2.55 | inactive |
| ZNF256 (zinc finger protein 256) | 1 | -1.26 | -5.93 | inactive |
| ZNF256 (zinc finger protein 256) | 2 | -0.559 | -0.966 | inactive |
| ZNF256 (zinc finger protein 256) | 3 | -0.239 | 1.29 | inactive |

7 of these entries in another layout.
gene | reagent | G2 robust z-score | G2 cells, % of GMNN control | activity call
ISG20 (interferon stimulated exonuclease gene 20) | 2 | -0.927 | -3.56 | inactive
ISG20 (interferon stimulated exonuclease gene 20) | 3 | 4.06 | 31.5 | inactive
TPRN (taperin) | 1 | -0.353 | 0.481 | inactive
TPRN (taperin) | 2 | -0.153 | 1.89 | inactive
TPRN (taperin) | 3 | -0.949 | -3.71 | inactive
RAB3D (RAB3D, member RAS oncogene family) | 1 | -0.808 | -2.71 | inactive
RAB3D (RAB3D, member RAS oncogene family) | 2 | 1.2 | 11.4 | inactive
